These results are taken from patent US20040259781A1 (Novartis, published 2004).

Protein sequences, listed by entry. Tags and fused reporters are not part of them. Lines headed by an entry give the natural chain unless they say otherwise; changes in a name come on top. Residues count along the entry.
UniProt P10039: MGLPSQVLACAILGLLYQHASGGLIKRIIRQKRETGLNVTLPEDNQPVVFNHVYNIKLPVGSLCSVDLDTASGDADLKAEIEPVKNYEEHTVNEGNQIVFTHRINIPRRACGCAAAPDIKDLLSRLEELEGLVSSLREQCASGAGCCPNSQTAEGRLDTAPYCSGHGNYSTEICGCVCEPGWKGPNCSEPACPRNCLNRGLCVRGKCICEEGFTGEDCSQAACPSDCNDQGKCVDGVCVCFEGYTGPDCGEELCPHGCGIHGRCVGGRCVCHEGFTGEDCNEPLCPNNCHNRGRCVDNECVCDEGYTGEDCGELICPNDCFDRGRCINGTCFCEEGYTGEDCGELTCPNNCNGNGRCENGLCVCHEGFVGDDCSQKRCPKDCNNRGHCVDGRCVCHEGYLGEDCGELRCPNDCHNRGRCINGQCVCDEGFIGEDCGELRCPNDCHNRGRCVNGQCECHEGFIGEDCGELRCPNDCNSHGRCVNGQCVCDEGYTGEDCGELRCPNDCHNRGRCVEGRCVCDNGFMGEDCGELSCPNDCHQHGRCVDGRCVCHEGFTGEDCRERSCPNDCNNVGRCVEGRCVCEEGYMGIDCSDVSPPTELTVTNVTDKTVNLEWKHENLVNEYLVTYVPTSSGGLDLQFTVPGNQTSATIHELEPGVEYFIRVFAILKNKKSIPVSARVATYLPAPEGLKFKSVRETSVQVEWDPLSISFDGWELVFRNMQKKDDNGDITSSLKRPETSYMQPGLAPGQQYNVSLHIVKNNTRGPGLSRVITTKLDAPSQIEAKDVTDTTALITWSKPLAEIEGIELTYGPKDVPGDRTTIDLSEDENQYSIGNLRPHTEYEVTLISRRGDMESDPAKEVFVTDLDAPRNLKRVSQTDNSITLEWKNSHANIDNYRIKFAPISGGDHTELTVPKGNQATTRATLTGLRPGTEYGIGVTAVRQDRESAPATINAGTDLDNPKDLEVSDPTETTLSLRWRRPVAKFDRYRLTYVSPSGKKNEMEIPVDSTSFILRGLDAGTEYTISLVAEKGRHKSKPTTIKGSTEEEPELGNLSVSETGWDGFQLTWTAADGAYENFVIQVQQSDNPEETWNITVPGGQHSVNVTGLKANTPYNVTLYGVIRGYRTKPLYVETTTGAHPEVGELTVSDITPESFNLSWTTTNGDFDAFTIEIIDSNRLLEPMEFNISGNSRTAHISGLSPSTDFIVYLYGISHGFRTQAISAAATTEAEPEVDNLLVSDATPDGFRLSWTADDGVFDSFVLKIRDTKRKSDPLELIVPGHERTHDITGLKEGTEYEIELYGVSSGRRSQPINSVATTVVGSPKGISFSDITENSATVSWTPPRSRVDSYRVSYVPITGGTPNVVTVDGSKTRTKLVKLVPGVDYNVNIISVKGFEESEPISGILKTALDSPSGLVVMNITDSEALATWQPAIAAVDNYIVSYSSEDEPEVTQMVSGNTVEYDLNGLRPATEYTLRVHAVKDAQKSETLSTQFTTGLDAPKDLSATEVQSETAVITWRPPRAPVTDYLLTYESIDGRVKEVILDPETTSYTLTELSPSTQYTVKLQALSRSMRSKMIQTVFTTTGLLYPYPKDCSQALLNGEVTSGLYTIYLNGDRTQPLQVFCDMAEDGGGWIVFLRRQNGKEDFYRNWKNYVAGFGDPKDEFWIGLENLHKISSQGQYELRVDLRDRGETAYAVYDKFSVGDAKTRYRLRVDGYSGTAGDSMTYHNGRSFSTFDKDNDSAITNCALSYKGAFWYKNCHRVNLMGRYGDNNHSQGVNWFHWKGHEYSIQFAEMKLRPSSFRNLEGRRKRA
UniProt Q28377, residues 32-2477: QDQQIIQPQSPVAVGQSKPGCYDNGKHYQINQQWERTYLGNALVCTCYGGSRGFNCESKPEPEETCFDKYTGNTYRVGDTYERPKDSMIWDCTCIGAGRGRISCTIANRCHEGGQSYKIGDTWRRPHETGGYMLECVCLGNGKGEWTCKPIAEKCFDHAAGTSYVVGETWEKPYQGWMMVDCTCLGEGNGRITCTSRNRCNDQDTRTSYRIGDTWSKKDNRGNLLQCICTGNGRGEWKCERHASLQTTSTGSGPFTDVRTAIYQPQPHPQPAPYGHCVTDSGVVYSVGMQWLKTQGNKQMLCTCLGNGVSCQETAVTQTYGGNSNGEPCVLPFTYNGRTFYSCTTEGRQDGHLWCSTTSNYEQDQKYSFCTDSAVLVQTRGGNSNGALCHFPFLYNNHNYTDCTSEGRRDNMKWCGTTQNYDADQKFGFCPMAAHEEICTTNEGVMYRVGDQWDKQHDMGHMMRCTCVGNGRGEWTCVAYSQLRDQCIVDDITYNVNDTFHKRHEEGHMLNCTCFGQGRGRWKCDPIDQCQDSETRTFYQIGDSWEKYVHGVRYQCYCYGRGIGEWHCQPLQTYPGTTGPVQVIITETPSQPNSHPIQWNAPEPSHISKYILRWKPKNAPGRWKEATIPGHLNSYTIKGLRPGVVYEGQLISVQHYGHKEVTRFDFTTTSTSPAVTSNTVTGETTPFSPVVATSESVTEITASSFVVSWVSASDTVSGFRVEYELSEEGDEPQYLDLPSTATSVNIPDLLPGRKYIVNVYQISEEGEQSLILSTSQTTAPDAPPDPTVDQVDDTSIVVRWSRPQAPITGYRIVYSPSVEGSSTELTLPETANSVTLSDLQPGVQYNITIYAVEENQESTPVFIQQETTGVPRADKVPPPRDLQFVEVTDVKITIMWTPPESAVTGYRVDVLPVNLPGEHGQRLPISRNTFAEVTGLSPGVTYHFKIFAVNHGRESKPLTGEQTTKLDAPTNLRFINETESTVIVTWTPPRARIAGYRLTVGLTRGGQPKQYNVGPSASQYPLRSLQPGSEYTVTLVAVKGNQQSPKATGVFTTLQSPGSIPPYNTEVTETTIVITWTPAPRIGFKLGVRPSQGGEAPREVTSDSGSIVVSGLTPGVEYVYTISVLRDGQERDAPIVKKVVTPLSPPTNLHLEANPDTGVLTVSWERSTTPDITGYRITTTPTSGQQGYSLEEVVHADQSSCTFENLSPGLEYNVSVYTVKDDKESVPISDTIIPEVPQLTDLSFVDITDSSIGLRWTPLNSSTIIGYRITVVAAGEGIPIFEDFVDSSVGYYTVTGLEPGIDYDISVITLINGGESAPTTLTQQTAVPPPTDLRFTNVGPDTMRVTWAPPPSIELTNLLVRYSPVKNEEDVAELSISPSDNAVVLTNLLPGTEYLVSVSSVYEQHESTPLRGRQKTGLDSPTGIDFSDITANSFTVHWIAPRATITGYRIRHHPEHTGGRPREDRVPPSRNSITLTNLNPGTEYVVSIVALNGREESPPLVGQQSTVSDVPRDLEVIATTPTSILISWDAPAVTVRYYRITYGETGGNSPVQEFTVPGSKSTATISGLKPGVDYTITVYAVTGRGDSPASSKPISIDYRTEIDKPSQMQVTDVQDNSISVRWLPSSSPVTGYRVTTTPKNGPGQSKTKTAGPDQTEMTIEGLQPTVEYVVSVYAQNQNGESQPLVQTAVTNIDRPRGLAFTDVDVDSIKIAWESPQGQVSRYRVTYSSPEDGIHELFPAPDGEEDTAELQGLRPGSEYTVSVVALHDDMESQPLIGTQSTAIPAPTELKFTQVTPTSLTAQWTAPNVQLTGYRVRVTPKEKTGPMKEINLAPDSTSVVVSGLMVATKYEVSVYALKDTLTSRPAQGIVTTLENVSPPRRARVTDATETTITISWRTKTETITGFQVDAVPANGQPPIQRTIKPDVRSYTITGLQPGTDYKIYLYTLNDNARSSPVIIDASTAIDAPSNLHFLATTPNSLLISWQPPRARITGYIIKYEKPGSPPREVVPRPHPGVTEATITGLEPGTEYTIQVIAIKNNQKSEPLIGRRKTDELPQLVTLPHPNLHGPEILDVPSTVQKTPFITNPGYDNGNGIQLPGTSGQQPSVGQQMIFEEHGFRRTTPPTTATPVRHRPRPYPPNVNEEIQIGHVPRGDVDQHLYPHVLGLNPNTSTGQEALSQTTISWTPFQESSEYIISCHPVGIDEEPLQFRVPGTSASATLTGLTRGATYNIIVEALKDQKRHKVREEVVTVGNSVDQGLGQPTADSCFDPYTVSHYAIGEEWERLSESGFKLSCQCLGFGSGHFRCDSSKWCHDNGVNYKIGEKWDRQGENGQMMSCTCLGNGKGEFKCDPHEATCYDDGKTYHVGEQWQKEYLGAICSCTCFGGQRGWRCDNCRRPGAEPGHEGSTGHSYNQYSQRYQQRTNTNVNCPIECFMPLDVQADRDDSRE

These are yes or no findings as the source states them, for the method shown. For part of these data: A result given as binding can be weak or reduced; the word gives no strength.

Assay [1] has as its target Full length chicken tenascin-C TN260 (chicken) (UniProt P10039). The assay can be described thus: ELISA, tenascin-C immobilised. Background: In an ELISA, binding on a coated surface is turned into a signal by an enzyme label.
The target of assay [2] is Fibronectin (purified from horse serum) (horse) (UniProt Q28377). The assay can be described thus: ELISA with fibronectin and recombinant fragments.
Assay [3] concerns the target Full length chicken tenascin-C TN260 (chicken) (UniProt P10039). The assay can be described thus: cells plated on substratum.

Regarding “Fibronectin (purified from horse serum) (from UniProt Q28377 32-2477)”, the binding entry in assay [1] is given as “binds”.
As to “Full length chicken tenascin-C TN260 (from UniProt P10039)”, the binding entry in assay [2] is on record as “binds”.

B1: Syndecan-1 overexpressed on T98G glioblastoma cells (receptor, mouse, UniProt P18828 23-311, looked up)
chain: QIVAVNVPPEDQDGSGDDSDNFSGSGTGALPDTLSRQTPSTWKDVWLLTATPTAPEPTSSNTETAFTSVLPAGEKPEEGEPVLHVEAEPGFTARDKEKEVTTRPRETVQLPITQRASTVRVTTAQAAVTSHPHGGMQPGLHETSAPTAPGQPDHQPPRVEGGGTSVIKEVVEDGTANQLPAGEGSGEQDFTFETSGENTAVAAVEPGLRNQPPVDEGATGASQSLLDRKEVLGGVIAGGLVGLIFAVCLVAFMLYRMKKKDEGSYSLEEPKQANGGAYQKPTKQEEFYA
Take B1: the binding result in assay [3] is reported as “no binding”.
